The list is a part of this screen's results and no random one: it gathers tests that were run many times, whatever their T/C, doses with no T/C, and many T/C values between a quarter and a half above the control. Other doses and runs of a compound stand elsewhere. T/C gives the treated animals as a percentage of the vehicle group. Some entries give survivors of the animals treated and no T/C: the source files T/C as zero there, which appears to mark a toxic dose or a test without result, not a measured value. Some survivor counts are full or nearly so, which does not show that the dose was tolerated: survival well below the control is almost never listed, so the zero probably covers shortened survival too. Survivors were counted at the toxicity check, usually on the fifth day, unless a day is given; later deaths do not show. Schedules are NCI's codes, taken here to give the interval after Q, in days (D) or hours (H), and the number of doses after X. Some entries hold several experiments; the values are given in rising order. For survival time, the PubChem record calls one and a half times the control and up active, and a quarter to a half above the control has no call in these data; cut-offs in other NCI protocols can differ.
Tested on: P388 leukemia ip, CD2F1 mice, survival T/C
Assay: NCI In Vivo Anticancer Drug Screen. Data for tumor model P388 Leukemia (intraperitoneal) in CD2F1 (CDF1) mice
Details: T/C endpoint: median survival time, higher T/C = longer survival
[1] = dose: 200.0 mg/kg/injection, schedule: Q01DX009 (ip), vehicle: Klucel (hydroxypropylcellulose) (HPC)
[2] = dose: 50.0 mg/kg/injection, schedule: Q01DX009 (ip), vehicle: saline with Tween-80
[3] = dose: 100.0 mg/kg/injection, schedule: Q01DX009 (ip), vehicle: saline with Tween-80
[4] = dose: 200.0 mg/kg/injection, schedule: Q01DX005 (ip), vehicle: Klucel (hydroxypropylcellulose) (HPC)
[5] = dose: 400.0 mg/kg/injection, schedule: Q01DX009 (ip), vehicle: saline with Tween-80
[6] = dose: 100.0 mg/kg/injection, schedule: Q01DX005 (ip), vehicle: saline with Tween-80
[7] = dose: 200.0 mg/kg/injection, schedule: Q01DX005 (ip), vehicle: saline with Tween-80
[8] = dose: 12.5 mg/kg/injection, schedule: Q01DX005 (ip), vehicle: Klucel (hydroxypropylcellulose) (HPC)
[9] = dose: 50.0 mg/kg/injection, schedule: Q01DX005 (ip), vehicle: Klucel (hydroxypropylcellulose) (HPC)
[10] = dose: 240.0 mg/kg/injection, schedule: Q01DX005 (ip), vehicle: Klucel (hydroxypropylcellulose) (HPC)
[11] = dose: 120.0 mg/kg/injection, schedule: Q01DX005 (ip), vehicle: saline with Tween-80

SMILES: O=[N+]([O-])c1ccc(-c2nc3ncncc3[nH]2)cc1
- survivor count (dose: 25.0 mg/kg/injection, schedule: Q01DX009 (ip), vehicle: Klucel (hydroxypropylcellulose) (HPC)): 1 of 6
- survivor count (dose: 50.0 mg/kg/injection, schedule: Q01DX009 (ip), vehicle: Klucel (hydroxypropylcellulose) (HPC)): 1 of 6
- survivor count (dose: 100.0 mg/kg/injection, schedule: Q01DX009 (ip), vehicle: Klucel (hydroxypropylcellulose) (HPC)): 1 of 6
- survivor count [1]: 0 of 6

SMILES: O=c1cc(O)c1=O
- survivor count (dose: 12.5 mg/kg/injection, schedule: Q01DX009 (ip), vehicle: saline with Tween-80): 5 of 6
- survivor count (dose: 25.0 mg/kg/injection, schedule: Q01DX009 (ip), vehicle: saline with Tween-80): 0 of 6
- survivor count [2]: 0 of 6
- survivor count [3]: 0 of 6

SMILES: [Ni+2].[S-]CC[S-]
- survivor count (dose: 400.0 mg/kg/injection, schedule: Q04DX003 (ip), vehicle: saline with Tween-80): 2 of 6

SMILES: Nc1c(Cl)ncnc1NCCN1CCOCC1
- survivor count [4]: 0 of 6

SMILES: COc1cc2c(cc1OC)-c1cc3cc(OC)c(OC)cc3c(C)[n+]1CC2 (tested in a mixture with another compound)
- T/C (dose: 25.0 mg/kg/injection, schedule: Q01DX009 (ip), vehicle: water): 125 % of control
- T/C (dose: 50.0 mg/kg/injection, schedule: Q01DX009 (ip), vehicle: water): 135 % of control
- survivor count (dose: 100.0 mg/kg/injection, schedule: Q01DX009 (ip), vehicle: water): 5 of 6

SMILES: O=C(O)C(O)C(O)C(=O)O.O=C(O)C(O)C(O)C(=O)O.[O]=[V].[O]=[V] (stereo not given)
- survivor count (dose: 50.0 mg/kg/injection, schedule: Q01DX009 (ip), vehicle: saline): 1 of 6
- survivor count (dose: 60.0 mg/kg/injection, schedule: Q01DX009 (ip), vehicle: saline): 1 of 6
- survivor count (dose: 100.0 mg/kg/injection, schedule: Q04DX003 (ip), vehicle: saline sonified): 3 of 6
- survivor count (dose: 120.0 mg/kg/injection, schedule: Q01DX009 (ip), vehicle: saline): 0 of 6

SMILES: CC1=C(C#N)C(C)(C)C(C#N)=C(C)N1
- survivor count (dose: 100.0 mg/kg/injection, schedule: Q01DX009 (ip), vehicle: other): 5 of 6
- survivor count (dose: 200.0 mg/kg/injection, schedule: Q01DX009 (ip), vehicle: other): 0 of 6
- survivor count (dose: 400.0 mg/kg/injection, schedule: Q01DX009 (ip), vehicle: other): 0 of 6

SMILES: CCc1c2oc(C(=O)c3ccc(Cl)cc3)cc2n2ccccc12
- survivor count (dose: 240.0 mg/kg/injection, schedule: Q01DX005 (ip), vehicle: Klucel + Tween-80): 6 of 6

SMILES: COc1cccc2c1C(=O)c1c(O)c3c(c(O)c1C2=O)C[C@@](O)(C(=O)COC(=O)CCCCC(=O)O)C[C@@H]3OC1CC(NC(=O)C(F)(F)F)C(O)C(C)O1 (stereo not given in full)
- T/C (dose: 37.5 mg/kg/injection, schedule: Q04DX003 (ip), vehicle: saline with Tween-80): 144 % of control
- survivor count (dose: 75.0 mg/kg/injection, schedule: Q04DX003 (ip), vehicle: saline with Tween-80): 2 of 6 on day 9
- survivor count (dose: 150.0 mg/kg/injection, schedule: Q04DX003 (ip), vehicle: saline with Tween-80): 2 of 6 on day 9
- survivor count (dose: 300.0 mg/kg/injection, schedule: Q04DX003 (ip), vehicle: saline with Tween-80): 1 of 6 on day 9

SMILES: CC1OC(Nc2ncnc3nc[nH]c23)C(O)C(O)C1NC(=O)CNC(=O)CCCCCCCCCCCC(C)(C)C (stereo not given)
- T/C (dose: 0.5 mg/kg/injection, schedule: Q01DX009 (ip), vehicle: distilled water + Tween-80): 147 % of control
- T/C (dose: 1.0 mg/kg/injection, schedule: Q01DX009 (ip), vehicle: distilled water + Tween-80): 136 % of control
- T/C (dose: 2.0 mg/kg/injection, schedule: Q01DX009 (ip), vehicle: distilled water + Tween-80): 149 % of control

SMILES: Cc1cc(O)c(C)c(C(=O)O)c1
- survivor count [5]: 2 of 6

SMILES: Cc1c2cc[n+]([O-])cc2c(C)c2c1oc1ccccc12
- T/C [2]: 125 and 134 % of control
- T/C [3]: 146 % of control
- survivor count [5]: 6 of 6

SMILES: COc1ccc2c(c1)CC[C@@H]1[C@@H]2CC[C@]2(C)C(=O)/C(=C/C=C/N(C)C)C[C@@H]12
- survivor count [6]: 6 of 6
- survivor count [7]: 6 of 6

SMILES: C=C1[C@@H](NC)CC[C@]23C[C@]24CC[C@]2(C)[C@@H]([C@H](C)NC)[C@H](O)C[C@@]2(C)[C@@H]4CC[C@@H]13
- survivor count (dose: 200.0 mg/kg/injection, schedule: Q01DX001 (ip), vehicle: saline with Tween-80): 3 of 6

SMILES: CCc1c(-c2ccccc2)nc(N)nc1-c1nc(N)nc(-c2ccccc2)c1CC
- survivor count (dose: 240.0 mg/kg/injection, schedule: Q01DX005 (ip), vehicle: saline): 1 of 6

SMILES: COc1cccc2c1C(=O)c1c(O)c3c(c(O)c1C2=O)CC(O)(C(C)=O)CC3OC1CC(N=CN(C)C)C(O)C(C)O1 (stereo not given)
- T/C (dose: 25.0 mg/kg/injection, schedule: Q04DX003 (ip), vehicle: distilled water + Tween-80): 129 and 137 % of control
- T/C (dose: 50.0 mg/kg/injection, schedule: Q04DX003 (ip), vehicle: distilled water + Tween-80): 128 % of control
- T/C (dose: 100.0 mg/kg/injection, schedule: Q04DX003 (ip), vehicle: distilled water + Tween-80): 134 % of control
- T/C (dose: 200.0 mg/kg/injection, schedule: Q04DX003 (ip), vehicle: distilled water + Tween-80): 137 % of control

SMILES: CCC(=O)Sc1ccccc1C(=O)Nc1ccc(Cl)cc1
- T/C [2]: 126 and 139 % of control
- T/C (dose: 200.0 mg/kg/injection, schedule: Q01DX009 (ip), vehicle: saline with Tween-80): 130 % of control
- survivor count [5]: 0 of 6

SMILES: COc1ccc2c(c1OC)C[N+]1(C)CCc3cc4c(cc3C1=C2C)OCO4 (stereo not given)
- survivor count [8]: 3 of 5
- survivor count (dose: 25.0 mg/kg/injection, schedule: Q01DX005 (ip), vehicle: Klucel (hydroxypropylcellulose) (HPC)): 0 of 5
- survivor count [9]: 0 of 6
- survivor count (dose: 100.0 mg/kg/injection, schedule: Q01DX005 (ip), vehicle: Klucel (hydroxypropylcellulose) (HPC)): 0 of 6
- survivor count [4]: 0 of 6

SMILES: C=C(C)c1nc(N(C)C)nc(N(C)C)n1
- survivor count (dose: 120.0 mg/kg/injection, schedule: Q01DX005 (ip), vehicle: Klucel (hydroxypropylcellulose) (HPC)): 6 of 6
- survivor count [10]: 6 of 6

SMILES: COc1cccc2c1C(=O)c1c(O)c3c(c(O)c1C2=O)C[C@@](O)(C(O)CO)C[C@@H]3OC1CC(N(Cc2ccccc2)Cc2ccccc2)C(O)C(C)O1 (stereo not given in full)
- T/C (dose: 25.0 mg/kg/injection, schedule: Q04DX003 (ip), vehicle: water): 148 % of control
- T/C (dose: 50.0 mg/kg/injection, schedule: Q04DX003 (ip), vehicle: water): 140 % of control
- T/C (dose: 200.0 mg/kg/injection, schedule: Q04DX003 (ip), vehicle: water): 126 and 142 % of control

SMILES: O=C(CC(=O)c1ccc(Cl)s1)C(=O)NC1C2CC3CC(C2)CC1C3 (stereo not given)
- survivor count (dose: 15.0 mg/kg/injection, schedule: Q01DX005 (ip), vehicle: saline with Tween-80): 6 of 6
- survivor count [11]: 3 of 6
- survivor count (dose: 240.0 mg/kg/injection, schedule: Q01DX005 (ip), vehicle: saline with Tween-80): 0 of 6

SMILES: C/C=C(\CCNCCCC)[Si](C)(C)C
- survivor count (dose: 400.0 mg/kg/injection, schedule: Q04DX002 (ip), vehicle: saline): 0 of 6

SMILES: CC1CC(OC(=O)CSC#N)CC(C)(C)C1 (stereo not given)
- survivor count [6]: 0 of 6
- survivor count [7]: 0 of 6

SMILES: COC(=O)c1cc(NC(=O)NNC(=O)c2ccncc2)cc(C(=O)OC)c1
- survivor count [1]: 1 of 6

SMILES: CC1(C)CC(C)(C)c2c1oc(=O)c1c3c(oc(=O)c21)C(C)(C)CC3(C)C
- survivor count [8]: 6 of 6
- survivor count [9]: 5 of 5 and 6 of 6
- survivor count [4]: 5 of 5

SMILES: N#Cc1c(-c2ccccc2)cn2c1[nH]c(=O)c1c3c(sc12)CCCC3
- survivor count [11]: 6 of 6

SMILES: N=C(N)c1ccc(OCCCCOc2ccc(N)cc2)cc1
- survivor count [10]: 0 of 6
